In PubChem BioAssay AID1508600 (Functional Genomics Laboratory (NCATS/FGL), 2020):
Screen size: about 53,000 sequences; about 3,700 (7%) were called active.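 The calls were made as follows: active = gene knockdowns whose robust z-score for IL-1 alpha signal is at least 2 or at most -2, so actives lie on both sides; inactive = the rest.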 This is one part of the list.

Test: Components of the Cytosolic LPS Sensing Pathway: Gene Identification via Genome-wide siRNA Screen;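 also: robust z of the log signal after scaling to non-targeting control siRNA wells of the plate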
Conditions: RAW264.7 macrophages, IL-1a HTRF, actives lie on both sides, screened at 100 nM (by protocol), cells primed 5 h with Pam3CSK4 first
Procedure, shortened: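 RAW264.7 mouse macrophages reverse-transfected with single siRNAs (100 nM final) for 48h, primed with Pam3CSK4 for 5 hours, then transfected with LipidA for 24 hour. Supernatant IL-1a read by HTRF; values normalized to negative-control median, log-transformed robust z-scores.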

Row | Sequence | z-score
1 | GGCCAAUAAAGAAACAAACTT against Cst9 | inactive: 1.08
2 | CCAUGCUUUUGAUUUUAGUTT against Lrig2 | inactive: 0.291
3 | GGUGUUCCACCAGGAUCACTT against Clca3a1 | inactive: 0.667
4 | GUGCUUUCGUGUUUUUCAATT against Klrb1b | inactive: -0.388
5 | GGUACAUUAAGGCACUGGCTT against Mgat5 | inactive: 0.248
6 | GGAUUAUACACACGAAUUUTT against Gosr1 | inactive: 0.646
7 | CCUCAGAAAAAGCCUAUAGTT against Kcnj3 | active: -2.13
8 | GGAUCAAGAUGUUUACUAATT against Nedd1 | inactive: 0.345
9 | AUGUAUUGAGUCAGGCAUCTT against Olfr243 | active: 2.32
10 | GCAUAACUAACCACAUCAATT against Sema5a | inactive: -0.173
11 | CCCAUGGAAAUCCUCAGUATT against Ctsa | active: -2.1
12 | GGAACAGCAGCAGAGUGAATT against Gkap1 | inactive: -1.09
13 | GGAUGAGUGAAGACUUAGCTT against Sag | inactive: 0.286
14 | GGUGCAAGUUCCCAUUAUATT against Tpsab1 | inactive: -0.405
15 | GGGACUUAUACUGAAAUAATT against Eif2ak4 | inactive: 0.771
16 | GGGACAUUCAUAUGUCUAUTT against Vmn2r-ps105 | inactive: 1.19
17 | CCAAUUACCGAAUAAGUUCTT against Map3k12 | inactive: 0.336
18 | GGAAGGUUCAGAAGUGACATT against Strm | inactive: 0.0881
19 | GGUGGUUUGUGAUGAAAAUTT against Pabpc1 | active: 2.11
20 | CCUACUCAGUGACAAAGGATT against Olfr366 | inactive: -0.563
21 | GCGGAUGAUCAAGAAUCGATT against Atf6b | inactive: -0.421
22 | GGUGGACUUGUACCUCUUCTT against Tnks | inactive: -0.0808

Row | Sequence | z-score
23 | CCCUAAUCAAGUUUGCUAUTT against Armc7 | inactive: 1.17
24 | GGGUAUCAUUGUUUACCGATT against Slc25a31 | inactive: 1.41
25 | GGCUGAAGCGCAAGAGGAATT against Wdr46 | active: 2.68
26 | GAAUCCUUGUUCUAUGCUCTT against Vmn1r180 | inactive: 0.366
27 | GGCAAAACUCAUGUUCUUUTT against Prox1 | inactive: 0.283
28 | GCUUGAAUCUCCCAAGAUATT against Kdm4c | inactive: -0.0989
29 | GGGUACAAAACUUGAACUUTT against Gins3 | active: 2.84
30 | GGGAUAGUGUAAGUUAGUUTT against Dppa4 | inactive: -0.0875
31 | GCCCAUAGUAUAAAAUACCTT against Dzip1 | inactive: 1.06
32 | GGAAGAUAUUGCUGUUGGATT against Mbd4 | inactive: 0.823
33 | GCUUACCACUAAGCAUCUUTT against Ctsc | inactive: -1.26
34 | GGACUUUGCACUUCUCACATT against Fut1 | inactive: 0.789
35 | GCGAUCUCACGAGGACUAATT against Tigar | inactive: 0.0244
36 | GGUUAUCACUCCUCAACAATT against Foxp1 | inactive: -1.67
37 | GCCUUCUGGGUAGAAACUGTT against Lcn12 | inactive: -0.834
38 | GCCAGGUGGAUUUGACUAUTT against Ptprv | inactive: -0.739
39 | CCAAAUUUGGCAUUUCUAATT against Slc31a1 | inactive: -0.0725
40 | GGCAAGAACAUUUUAUCAATT against Adamts12 | inactive: -0.0546
41 | CUAGCUUGUGCCGUUCUGATT against Cox14 | inactive: -0.657
42 | CCGUAGGAGAAGAAAUCCGTT against Grap2 | inactive: 0.686
43 | GGUUUACUCAGUUAACAGATT against Tgoln1 | inactive: 0.536
44 | GGCUUUUCACACGAUAGGGTT against Rab9b | inactive: -1.4

Fetched one by one from the list above, five records:
Row | Sequence | z-score
42 | CCGUAGGAGAAGAAAUCCGTT against Grap2 | inactive: 0.686
31 | GCCCAUAGUAUAAAAUACCTT against Dzip1 | inactive: 1.06
35 | GCGAUCUCACGAGGACUAATT against Tigar | inactive: 0.0244
44 | GGCUUUUCACACGAUAGGGTT against Rab9b | inactive: -1.4
25 | GGCUGAAGCGCAAGAGGAATT against Wdr46 | active: 2.68

Next records follow.

Row | Sequence | z-score
45 | CCACCGACUGUGACAUUGUTT against Cngb1 | inactive: 0.86
46 | GGCUUUCAACUCUCAACAGTT against Smg7 | inactive: -1.59
47 | GGUUGUAUUGGAUAUCAAGTT against Ceacam2 | inactive: 0.953
48 | GCACCUCCUUAUGUGUCAUTT against Chrm2 | inactive: 0.729
49 | GGCAGAGUAUGAGUUUGACTT against Camk1 | inactive: 0.699
50 | GGAGAAGACACAGAGAACCTT against Pkd2l1 | inactive: 0.645
51 | GGGCUGAUGAGCAAAGCAUTT against Setd4 | inactive: -1.01
52 | GGAAUUCUUAAGAAGUUACTT against Dsg2 | inactive: 0.857
53 | GGAACUGAGAUCAUUCUGCTT against Olfr140 | inactive: 0.307
54 | GCUUUUCGUUCUUAUACAUTT against Mnx1 | inactive: 1.13
55 | GGUGGUGGCAGAAAUGAAUTT against Dpep2 | inactive: -0.946
56 | GGUUAAAUCGAUUUUGCAUTT against Acbd5 | inactive: -0.185
57 | GGUCAACAGAAUUGAUUCUTT against Cutal | inactive: -0.492
58 | GCCACUCCUAUGAGUGUUATT against Cdk18 | inactive: 0.236
59 | GGCAACAGCAGCUUAUGCCTT against Map3k11 | inactive: 0.122
60 | GGAGCUUUUUUAGUGAUCUTT against Zbtb37 | inactive: -0.891
61 | GGAGAUUCCCGUGGUUAUUTT against Glt8d1 | inactive: 0.909
62 | GGACUUGAAAAUUGUUCUUTT against Cers5 | inactive: 1.31
63 | GCGUGUUCGGUUUACCAAGTT against Ago1 | inactive: 1.35
64 | GGAAUUUUGCCACUAAGAUTT against Pfkm | inactive: -1.21
65 | GGAGCCCAAAAAGAAGAAATT against Mrpl48 | inactive: 0.43
66 | GGAACACUCAGGUCUUUCUTT against Olfr450 | inactive: -1.48

Row | Sequence | z-score
67 | GGACUCUGCCUUUGACCCATT against Myl4 | inactive: -0.529
68 | GCGUAUAAGCUCAGUAGACTT against Phlpp1 | inactive: 1.06
69 | GCCCUUGGGAUAAUUAUUGTT against Tmprss11b | inactive: 0.576
70 | CCUAAAGUCACAUCUAAGATT against Pum3 | inactive: 1.06
71 | GCAAAUCCCAUGAACAGCUTT against Nvl | active: -2.55
72 | GGUGGUGAUUCAUCUGUGCTT against Tas2r135 | inactive: -0.836
73 | GGAUGAAACUAUUCAGCACTT against Chml | inactive: -0.635
74 | GCAUGACAGAGUUAUUCAUTT against Olfr474 | inactive: -0.59
75 | GGAACUGAAACAGUUGGAATT against Tmod2 | inactive: -0.00247
76 | CGACUAUGGUUUAAUCAUCTT against Atp11a | inactive: -1.03
77 | GCGCAGAGGGAUCAUAGAGTT against Heyl | inactive: 0.326
78 | CCGAGCAAGGCAUAGAAAATT against Tex24 | inactive: -1.12
79 | GGACGUAUCUUCUUUAAGATT against Immp1l | inactive: 0.45
80 | GGCACCAUCUACGACUAUGTT against Gpx5 | inactive: -0.649
81 | CCCAGGAUAUAAUUCAACUTT against R3hdm2 | inactive: -0.218
82 | GGUGAAAAUCAUCCAGCGATT against Iqcj | inactive: 0.427
83 | GCUUUCAUUAAGUCAGAUCTT against Flvcr2 | inactive: 1.16
84 | GGUGAUUGCUGAAGACGAGTT against Fbxw8 | inactive: -0.172
85 | CCAUAUGGCUUGUGGCAGATT against Scn1b | inactive: -0.245
86 | GCUAGGUGCUGCUACGAAATT against Tex13c3 | inactive: -0.0824
87 | GGAGCUGUAAAGGCUACAATT against Sulf2 | active: 4.14
88 | GCAGCUCCUAAGAAGAUAATT against Samsn1 | inactive: -1.77

From no. 76 to 79, as listed above:
Row | Sequence | z-score
76 | CGACUAUGGUUUAAUCAUCTT against Atp11a | inactive: -1.03
77 | GCGCAGAGGGAUCAUAGAGTT against Heyl | inactive: 0.326
78 | CCGAGCAAGGCAUAGAAAATT against Tex24 | inactive: -1.12
79 | GGACGUAUCUUCUUUAAGATT against Immp1l | inactive: 0.45

Further entries:

Row | Sequence | z-score
89 | GGCCAAACAAGACCCAUCUTT against Ppil2 | inactive: -0.621
90 | CCCUACGUGAGACAUUUGATT against Ankrd53 | inactive: -1.23
91 | GUCUGUAUUCCUAGAUUCCTT against Olfr794 | inactive: -0.0923
92 | GCAAAUUAAGAUGUGCUGATT against Esco2 | inactive: -0.749
93 | GCUAAGGUACAUUUGUAGATT against Cebpd | inactive: 0.218
94 | GCCAAGAUGGUAUUUCACATT against Defb20 | inactive: -1.39
95 | GCUCCUCCUAUAUGUGAAUTT against Cr2 | inactive: 0.535
96 | GGUGCUGACUCCGACUAAATT against Nhsl1 | inactive: 1.2
97 | CCCAGUAAAUAAGAGUACATT against Treml1 | inactive: -1.33
98 | GGGUAGAUAACAUCUGGACTT against Dgat2 | inactive: 0.798
99 | CCUAUGAUUCAGUGUAUCUTT against Hdac6 | inactive: -0.654
100 | CCCAGUUUCUCUAGGAAUATT against H2ax | inactive: 0.144
101 | CCAUCAAUCAUCAUCGCCUTT against Slc27a2 | inactive: -1.64
102 | CGAAAGCACACACGUAGAATT against Erdr1 | inactive: 0.391
103 | GGUUCACAAUGGAUUAUGATT against Lrrc25 | inactive: -1.68
104 | GGCCUGAGACUCUCACAGATT against Taf5l | inactive: 0.0833
105 | CGACCUGGAUAGGUUGUUUTT against Ckap4 | inactive: 0.443
106 | CCGGUUUUAUGCAGUGUGUTT against Taar3 | inactive: 0.495
107 | GGCAUUGUGAAGCUGAAACTT against Ptpn9 | inactive: 0.11
